Experimental data published in PubChem BioAssay AID208 (DTP/NCI, 2004).
The list shows only some results of the screen, not a fair sample: it is rich in T/C values a quarter to a half above the control, in often repeated tests (any T/C) and in doses without a T/C. Other doses and runs of a compound stand elsewhere. T/C: endpoint of the treated group in % of that of the vehicle group. Schedule codes are those of the source, read here as Q, the interval in days (D) or hours (H), X, the number of doses. Some values lie below zero, which means that the treated tumours became smaller. Some entries hold several experiments; their values stand side by side, smallest first. Some T/C values carry the count of animals alive at the toxicity check (mostly the fifth day); without a count, all were alive then. Additions like (4×) give the number of equal values in this list. Some doses have a count of surviving animals in place of a T/C: the source holds a T/C of zero for them, seemingly a mark for toxic or unscored doses. Counts of survivors are from the toxicity check (mostly the fifth day) where no day follows; animals may have died later. *1 amine or outer side, *2 acyl side, *3 side chain or, on linkers, in order; H or OH if unused. Where a SMILES comes first, the peptide text is derived from it. Bridges are numbered along the chain shown (N, C = ends). Roman numbers before positions name the chains, in order. [ ]: non-standard residue; d: D form. Actinocin(9to1) = Cc1c2oc3c(C)ccc(C(=O)[*:1])c3nc-2c(C(=O)[*:2])c(N)c1=O; aThr = C[C@H](O)[C@H](N)C(=O)O; NMeV = CN[C@H](C(=O)O)C(C)C; Sar = CNCC(=O)O

System: HT29 intrarenal xenograft, nude mice, tumor weight change
Assay: NCI In Vivo Anticancer Drug Screen. Data for tumor model HT29;CX-1 Human Adenocarcinoma (MER+) (intrarenal inoculation) in NU/NU BALB/C (nude) mice
Details: T/C endpoint: mean tumor weight change, higher T/C = larger tumour
Procedure: The antitumor activity of compounds was measured in mice bearing transplantable tumors. Survival or tumor size were measured and the results are expressed as the measurement made in the treated group (T) divided by the measurement made in the vehicle treated control group (C). The tumor model used in this assay is HT29;CX-1 Human Adenocarcinoma (MER+) (intrarenal inoculation) in NU/NU BALB/C (nude) mice

[1] = dose: 1600.0 mg/kg/injection, schedule: Q04DX004 (sc), vehicle: saline with Tween-80
[2] = dose: 300.0 mg/kg/injection, schedule: Q04DX004 (sc), vehicle: saline
[3] = dose: 600.0 mg/kg/injection, schedule: Q04DX004 (sc), vehicle: saline
[4] = dose: 1200.0 mg/kg/injection, schedule: Q04DX004 (sc), vehicle: saline

O=NN(CCCl)C(=O)NCCCl
T/C (dose: 12.0 mg/kg/injection, schedule: Q04DX004 (ip), vehicle: saline + alcohol, evaluated on day 15): 47, 61, 83, 107 % of control | T/C (dose: 18.0 mg/kg/injection, schedule: Q04DX004 (ip), vehicle: saline + alcohol, evaluated on day 15): -21, 31, 74, 136 % of control | T/C (dose: 27.0 mg/kg/injection, schedule: Q04DX004 (ip), vehicle: saline + alcohol, evaluated on day 15): 49 [5 of 6 alive on day 15], 62, 97, 115 % of control [5 of 6 alive on day 15]

CSc1ncnc2c1ncn2C1OC(CO)C(O)C1O (stereo unspecified)
survivor count (dose: 300.0 mg/kg/injection, schedule: Q04DX004 (sc), vehicle: saline + alcohol): 0 of 6 on day 15

Cc1cc(N)c2ccccc2[n+]1CCCCCCCCCC[n+]1c(C)cc(N)c2ccccc21
survivor count (dose: 3.0 mg/kg/injection, schedule: Q01DX010 (ip), vehicle: dextrose): 3 of 6 on day 11 | survivor count (dose: 6.0 mg/kg/injection, schedule: Q01DX010 (ip), vehicle: dextrose): 0 of 6 on day 11

O=C1N[C@@H]2C(=C[C@H](O)[C@@H](O)[C@H]2O)c2cc3c(c(O)c21)OCO3
survivor count (dose: 10.0 mg/kg/injection, schedule: Q04DX004 (sc), vehicle: saline with Tween-80): 1 of 6 on day 15 | survivor count (dose: 20.0 mg/kg/injection, schedule: Q04DX004 (sc), vehicle: saline with Tween-80): 0 of 6 on day 15 | survivor count (dose: 40.0 mg/kg/injection, schedule: Q04DX004 (sc), vehicle: saline with Tween-80): 0 of 6 on day 15

O=C(O)CP(=O)(O)O
T/C (dose: 300.0 mg/kg/injection, schedule: Q04DX004 (sc), vehicle: saline, evaluated on day 15): 143 % of control

CN(C)P(=O)(Oc1ccccc1)N(C)C
survivor count [1]: 0 of 6 on day 15

CC(=O)Oc1ccc[nH]c1=O
survivor count [1]: 0 of 6 on day 15

COC1=C(OC)C(=O)C(SC/C=C(\C)CCCC(C)CCCC(C)CCCC(C)C)=CC1=O (stereo unspecified)
survivor count (dose: 2400.0 mg/kg/injection, schedule: Q04DX004 (ip), vehicle: saline with Tween-80): 2 of 6 on day 15

CCCCNc1ccc2nnc(C)n2n1
survivor count (dose: 300.0 mg/kg/injection, schedule: Q04DX004 (ip), vehicle: DMSO): 3 of 6 on day 15 | survivor count (dose: 300.0 mg/kg/injection, schedule: Q04DX004 (ip), vehicle: sodium bicarbonate): 3 of 6 on day 15 | survivor count (dose: 600.0 mg/kg/injection, schedule: Q04DX004 (ip), vehicle: DMSO): 0 of 6 on day 15 | survivor count (dose: 600.0 mg/kg/injection, schedule: Q04DX004 (ip), vehicle: sodium bicarbonate): 1 of 6 on day 15 | survivor count (dose: 1200.0 mg/kg/injection, schedule: Q04DX004 (ip), vehicle: DMSO): 0 of 6 on day 15 | survivor count (dose: 1200.0 mg/kg/injection, schedule: Q04DX004 (ip), vehicle: sodium bicarbonate): 0 of 6 on day 15

CCCCCCCCCCCCCCCCCCOCC(COP(=O)([O-])OCC[N+](C)(C)C)OC (stereo unspecified)
T/C (dose: 75.0 mg/kg/injection, schedule: Q04DX004 (sc), vehicle: saline, evaluated on day 15): 129 % of control | survivor count [2]: 0 of 6 on day 15 | survivor count [3]: 0 of 6 on day 15

FC(F)(F)c1nc2nc(Cl)c(Cl)nc2[nH]1
survivor count (dose: 600.0 mg/kg/injection, schedule: Q04DX004 (sc), vehicle: saline with Tween-80): 0 of 6 on day 15

O=C1c2ccccc2C(=O)c2c(NCCNCCO)ccc(O)c21
T/C (dose: 50.0 mg/kg/injection, schedule: Q04DX004 (sc), vehicle: saline, evaluated on day 15): 128 % of control

C[CH2][Sn]([CH2]C)([O]S(C)(=O)=O)[O]S(C)(=O)=O
survivor count (dose: 25.0 mg/kg/injection, schedule: Q04DX004 (sc), vehicle: saline with Tween-80): 2 of 6 on day 15 | survivor count (dose: 50.0 mg/kg/injection, schedule: Q04DX004 (sc), vehicle: saline with Tween-80): 0 of 6 on day 15

Cc1c(-c2ccc(-c3ccccc3F)cc2)nc2ccc(F)cc2c1C(=O)O
T/C (dose: 6.9 mg/kg/injection, schedule: Q01DX009 (ip), vehicle: water, evaluated on day 11): 14 [5 of 6 alive on day 11], 16, 46 % of control | T/C (dose: 6.9 mg/kg/injection, schedule: Q01DX009 (ip), vehicle: water, evaluated on day 15): 69 % of control | T/C (dose: 11.5 mg/kg/injection, schedule: Q01DX009 (ip), vehicle: water, evaluated on day 11): 5, 15 [5 of 6 alive on day 11], 110 % of control | T/C (dose: 11.5 mg/kg/injection, schedule: Q01DX009 (ip), vehicle: water, evaluated on day 15): 39 % of control | T/C (dose: 19.2 mg/kg/injection, schedule: Q01DX009 (ip), vehicle: water, evaluated on day 11): 2, 18 [4 of 6 alive on day 11], 65 % of control | T/C (dose: 19.2 mg/kg/injection, schedule: Q01DX009 (ip), vehicle: water, evaluated on day 15): 40 % of control [5 of 6 alive on day 15] | survivor count (dose: 25.0 mg/kg/injection, schedule: Q01DX010 (ip), vehicle: water): 0 of 6 on day 15 | T/C (dose: 32.0 mg/kg/injection, schedule: Q01DX009 (ip), vehicle: water, evaluated on day 11): 10 and 32 % of control | T/C (dose: 32.0 mg/kg/injection, schedule: Q01DX009 (ip), vehicle: water, evaluated on day 15): 3 % of control [5 of 6 alive on day 15] | survivor count (dose: 32.0 mg/kg/injection, schedule: Q01DX009 (ip), vehicle: water): 2 of 6 on day 11 | survivor count (dose: 50.0 mg/kg/injection, schedule: Q01DX010 (ip), vehicle: water): 1 of 6 on day 15 | survivor count (dose: 53.3 mg/kg/injection, schedule: Q01DX009 (ip), vehicle: water): 0 of 6 on day 11 and 1 of 6 on day 11 | survivor count (dose: 100.0 mg/kg/injection, schedule: Q01DX010 (ip), vehicle: water): 0 of 6 on day 15

CCCCC1CCCCCCc2[nH]c(/C=C3\N=C(c4ccc[nH]4)C=C3OC)cc21 (stereo unspecified)
T/C (dose: 16.0 mg/kg/injection, schedule: Q04DX004 (sc), vehicle: saline with Tween-80, evaluated on day 15): 125 % of control

O=P1(NCCCl)OCCCN1CCCl (stereo unspecified)
survivor count (dose: 150.0 mg/kg/injection, schedule: Q04DX004 (sc), vehicle: saline): 0 of 6 on day 15 | survivor count [2]: 0 of 6 on day 15 | survivor count [3]: 0 of 6 on day 15

Cn1cnc([N+](=O)[O-])c1S(=O)(=O)NCN1CCOCC1
survivor count (dose: 200.0 mg/kg/injection, schedule: Q01DX010 (sc), vehicle: Klucel (hydroxypropylcellulose) (HPC)): 1 of 3 on day 11 | survivor count (dose: 400.0 mg/kg/injection, schedule: Q01DX010 (sc), vehicle: Klucel (hydroxypropylcellulose) (HPC)): 0 of 3 on day 11 | survivor count (dose: 800.0 mg/kg/injection, schedule: Q01DX010 (sc), vehicle: Klucel (hydroxypropylcellulose) (HPC)): 0 of 3 on day 11

O=C(O)C1(NO)CCCCC1
T/C (dose: 800.0 mg/kg/injection, schedule: Q04DX004 (sc), vehicle: Klucel (hydroxypropylcellulose) (HPC), evaluated on day 15): 134 % of control

Cc1c2oc3c(C)ccc(C(=O)N[C@@H]4C(=O)N[C@H](C(C)C)C(=O)N5CCC[C@H]5C(=O)N(C)CC(=O)N(C)[C@@H](C(C)C)C(=O)O[C@H]4C)c3nc-2c(C(=O)N[C@@H]2C(=O)N[C@H](C(C)C)C(=O)N3CCC[C@H]3C(=O)N(C)CC(=O)N(C)[C@@H](C(C)C)C(=O)O[C@H]2C)c(N)c1=O (I: [aThr][dV]P[Sar][NMeV] / II: [aThr][dV]P[Sar][NMeV]; ester I:1-I:C, II:1-II:C; linker I:N-II:N via Actinocin(9to1))
T/C (dose: 0.13 mg/kg/injection, schedule: Q04DX004 (ip), vehicle: saline, evaluated on day 15): -5, 29, 44, 63, 81 % of control | survivor count (dose: 0.13 mg/kg/injection, schedule: Q04DX004 (ip), vehicle: saline): 0 of 6 on day 15 | T/C (dose: 0.2 mg/kg/injection, schedule: Q04DX004 (ip), vehicle: saline, evaluated on day 15): 5, 14, 27, 36, 72 % of control | survivor count (dose: 0.2 mg/kg/injection, schedule: Q04DX004 (ip), vehicle: saline): 0 of 6 on day 15 | T/C (dose: 0.3 mg/kg/injection, schedule: Q04DX004 (ip), vehicle: saline, evaluated on day 15): -26 (2×) and 36 % of control (3×) | survivor count (dose: 0.3 mg/kg/injection, schedule: Q04DX004 (ip), vehicle: saline): 0 of 6 on day 15

O=[N+]([O-])c1nccn1CC(O)CO (stereo unspecified)
T/C (dose: 600.0 mg/kg/injection, schedule: Q04DX004 (sc), vehicle: saline, evaluated on day 15): 127 % of control

CC(C)C(N)C(=O)Nc1nncs1 (stereo unspecified)
survivor count [4]: 0 of 6 on day 15

O=C1CCC(=O)N1CO
survivor count [4]: 0 of 6 on day 15
